PMC6925144, “A prospective compound screening contest identified broader inhibitors for Sirtuin 1” (Scientific Reports, 2019)
Over roughly 3,200 compounds, “TSA(with NAD+) / Primary screening (TSA) / delta Tm (K)” has its median near -0.04; the highest 2% begin near 0.37. This is one part of the list.

Amino acid sequences for entries named in this document (tags omitted). Residues count along the entry.
UniProt Q96EB6, 2-747 limits assumed: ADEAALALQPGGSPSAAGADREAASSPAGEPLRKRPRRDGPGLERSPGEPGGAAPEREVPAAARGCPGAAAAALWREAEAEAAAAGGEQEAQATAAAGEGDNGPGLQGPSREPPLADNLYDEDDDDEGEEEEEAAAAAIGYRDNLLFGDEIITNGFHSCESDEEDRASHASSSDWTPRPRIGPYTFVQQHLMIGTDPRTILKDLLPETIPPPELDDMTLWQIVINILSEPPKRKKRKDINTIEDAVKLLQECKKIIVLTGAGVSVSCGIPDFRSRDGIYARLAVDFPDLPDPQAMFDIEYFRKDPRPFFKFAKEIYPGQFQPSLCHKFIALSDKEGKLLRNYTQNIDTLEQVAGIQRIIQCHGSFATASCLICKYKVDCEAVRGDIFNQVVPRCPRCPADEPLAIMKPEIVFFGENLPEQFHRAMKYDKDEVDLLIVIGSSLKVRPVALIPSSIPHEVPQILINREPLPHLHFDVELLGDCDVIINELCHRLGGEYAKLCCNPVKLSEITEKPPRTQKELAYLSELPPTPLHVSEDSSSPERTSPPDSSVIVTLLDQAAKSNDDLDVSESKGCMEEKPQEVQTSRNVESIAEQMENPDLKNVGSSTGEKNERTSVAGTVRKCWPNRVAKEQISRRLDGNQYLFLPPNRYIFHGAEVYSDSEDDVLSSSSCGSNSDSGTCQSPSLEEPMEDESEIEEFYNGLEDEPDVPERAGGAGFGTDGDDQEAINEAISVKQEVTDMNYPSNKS

The molecules below were run against NAD-dependent deacetylase Sirtuin 1 (human, UniProt Q96EB6) (assay: primary screen, delta tm). Conditions: 10 µM.
Parameters: single well (n = 1, as 'the same TSA')

SMILES	TSA(with NAD+) / Primary screening (TSA) / delta Tm (K)
Cn1c(=O)c2c(ncn2CCCC(=O)Nc2nc(-c3ccc4c(c3)CCC(=O)N4)cs2)n(C)c1=O	-0.08
O=C(Nc1ccc(F)c(F)c1F)c1ccncc1	-0.01
CCCNC(=O)C1CCCN1c1cc(C(F)(F)F)nc2ccccc12 (stereo not drawn)	-0.03
Cc1ccc2oc(=O)cc(N3C[C@H]4C[C@H](C3)c3cccc(=O)n3C4)c2c1	-0.03
CNC(=O)Cn1ccc(C(F)(F)F)n1	-0.03
Cc1c(C(=O)C2=C(O)C(=O)N(CCCN3CCOCC3)C2c2ccccc2)cnn1-c1ccccc1 (stereo not drawn)	-0.12
Cc1ccc(N(C)S(=O)(=O)c2cccc(C(=O)Nc3c(C)cccc3C(C)C)c2)cc1	0.06
Cn1c(=O)[nH]c(=O)c2c1nc(N1CCC(C(N)=O)CC1)n2CCCSc1nc2ccccc2s1	-0.03
CC(NC(=O)c1nccnc1N)c1ccc(NC(=O)C2CC2)cc1 (stereo not drawn)	-0.01
O=C(CN1CCCC2(CC=CCC2)C1)N1CCc2[nH]c3ccccc3c2C1 (stereo not drawn)	0.06
COc1ccc(C(=O)C2=C(O)C(=O)N(CCN3CCOCC3)C2c2ccc(C)o2)cc1OC (stereo not drawn)	-0.14
COC(=O)c1ccc2[nH]c3c(c2c1)CNCC3	-0.24
CC(=O)c1ccc(N2CCN(c3ncnc4c3oc3ccccc34)CC2)c(F)c1	0.02
CN(C)C(C)(C)CNc1ncnc2ccsc12	-0.01
C#CCNC(=O)CNC(=O)c1ccc2c(=O)[nH]c(S)nc2c1	0.06
COc1ccc([N+](=O)[O-])cc1NC(=O)C(C)N(NC(=O)COc1cccc(Br)c1)C(C)C(=O)Nc1cc([N+](=O)[O-])ccc1OC (stereo not drawn)	-0.06
NNc1ncnc2c1cnn2-c1ccc(Cl)cc1	-0.01
OCCCNc1nc2ccccc2s1	-0.32
Cc1onc(-c2ccccc2)c1-c1nnc(CSc2ncnc3sc4c(c23)CCC(C)C4)o1 (stereo not drawn)	-0.12

SMILES	TSA(with NAD+) / Primary screening (TSA) / delta Tm (K)
Cc1ccccc1C(=O)N1CCC(C(=O)NC2CCCCCC2)CC1	-0.11
N#Cc1ccc(OCCN2CCCC2C(N)=O)cc1 (stereo not drawn)	-0.22
Cc1ccc(N(C)S(=O)(=O)c2cccc(C(=O)Nc3nc4ccccc4[nH]3)c2)cc1	-0.06
c1nc(N2CCOCC2)c2sccc2n1	0.05
COc1cccc(CN(C(=O)CN2C(=O)c3cccc(N)c3C2=O)C23CC4CC(CC(C4)C2)C3)c1	0.05
COc1cccc(C(C)CC(=O)N2CCC(Oc3ccnc(C(N)=O)c3)CC2)c1 (stereo not drawn)	-0.05
CN(c1ccccc1)S(=O)(=O)c1cccc(C(=O)Nc2ccccc2-c2ccccc2)c1	-0.02
CC(=O)c1cc(CCC(=O)Nc2ccc(-c3nnc4n3CCCCC4)cc2)oc1C	-0.01
COc1ccc(NC(=O)NCC(C)(C)SC)cc1	-0.09
NC(=O)C1CC(C(=O)NCc2ccc(O)cc2)=NN1c1ccccc1 (stereo not drawn)	-0.28
C=CCOc1ccc(C(=O)C2=C(O)C(=O)N(CCN3CCOCC3)C2c2ccco2)cc1 (stereo not drawn)	-0.01
CC(C)C(NC(=O)CCCn1c(=O)oc2cc([N+](=O)[O-])ccc21)c1nnc2ccccn12 (stereo not drawn)	-0.11
CCOc1cc(/C=C/C(=O)C2C(=O)C=C(C)OC2=O)ccc1OCC(=O)N1CCOCC1 (stereo not drawn)	-0.01
CN(c1ccc(F)cc1)S(=O)(=O)c1ccc(Cl)c(C(=O)Nc2ccc(C(N)=O)cc2)c1	-0.11
CC(=O)c1ccc(NC(=O)C(C)OC(=O)c2cccc(S(=O)(=O)NC(C)C34CC5CC(CC(C5)C3)C4)c2)cc1 (stereo not drawn)	0.19
COc1ccc(CNCC(=O)Nc2sc(-c3ccccc3)cc2C(N)=O)cc1	0.03
Cc1ccc(N(C)S(=O)(=O)c2cccc(C(=O)OCC(N)=O)c2)cc1	-0.13
CN(C)c1ncccc1CNC(=O)CN(C)c1ncnc2nc[nH]c12	-0.06
CC(C)CCN1C(=O)c2ccc(C(=O)OCC(=O)NC(C)C34CC5CC(CC(C5)C3)C4)cc2C1=O (stereo not drawn)	0.12

Part of the list above in a different format:
SMILES | TSA(with NAD+) / Primary screening (TSA) / delta Tm (K)
Cn1c(=O)[nH]c(=O)c2c1nc(N1CCC(C(N)=O)CC1)n2CCCSc1nc2ccccc2s1 | -0.03
CC(NC(=O)c1nccnc1N)c1ccc(NC(=O)C2CC2)cc1 (stereo not drawn) | -0.01
O=C(CN1CCCC2(CC=CCC2)C1)N1CCc2[nH]c3ccccc3c2C1 (stereo not drawn) | 0.06
COc1ccc(C(=O)C2=C(O)C(=O)N(CCN3CCOCC3)C2c2ccc(C)o2)cc1OC (stereo not drawn) | -0.14

Next part:

SMILES	TSA(with NAD+) / Primary screening (TSA) / delta Tm (K)
NC(=S)c1ccc(C(=O)Nc2ccc(OC(F)F)cc2)cc1	0.35
N#Cc1c(NCCOc2ccc3c(c2)CCC(=O)N3)nc2ccccn12	-0.06
Cn1cc(C(=O)Nc2cccc(C3(C)NC(=O)NC3=O)c2)c2ccccc21 (stereo not drawn)	0.07
COC(=O)c1cccc(NC(=O)COC(=O)c2cc(O)cs2)c1	0.07
Cc1ccc(Cc2cnc(N)s2)cc1	-0.16
Cc1cccc(NCCC#N)c1C	-0.16
O=C(NC1CCCCC1O)c1cc2ccccc2[nH]1 (stereo not drawn)	-0.13
COc1ccc(-c2nnc(S)o2)c(OC)c1	-0.13
CS(=O)(=O)Cc1ccc(C(=O)NCC2(N3CCCCC3)CCCCC2)cc1	-0.03
Cc1sc2nc(-c3cccnc3)nc(N3CCC(C(N)=O)CC3)c2c1C	-0.01
O=C(Nc1cccc(CNC(=O)N2CCC2)c1)c1ccccn1	-0.02
O=C(NCc1ccccc1CS(=O)(=O)N1CCOCC1)C1=COCCO1	-0.05
Cc1cccc(C(=O)OCc2ccc(C(=O)Nc3ccccc3)cc2)c1	-0.03
CCC(=O)CCCN1CCC(C(C)O)CC1 (stereo not drawn)	-0.01
COc1cccc(C2C(C(=O)c3ccc4c(c3)OCCO4)=C(O)C(=O)N2CCCN2CCOCC2)c1 (stereo not drawn)	-0.03
O=C1NC(=S)NC(=O)C1=Cc1cn(-c2ccccc2)nc1-c1cc2ccccc2o1	0.56
COc1ccc(C(=O)C2=C(O)C(=O)N(CCCN3CCOCC3)C2c2cccc(OC)c2)cc1 (stereo not drawn)	-0.11
O=S(=O)(c1ccc(F)c(Cl)c1)N1CCNCC1	-0.12
Cc1cnc(C(=O)NC2CCCC(C)C2C)cn1 (stereo not drawn)	0.06
